No constants are given. Whether binding was seen depends on the method and setting. Binding seen in cells or lysates may run through a third protein. Some entries that bind do so weakly or less than the wild type. Tags and fused reporters may be left off the sequences shown.

By UniProt entry, the sequences of proteins in these tests, tags left out.
UniProt P04147: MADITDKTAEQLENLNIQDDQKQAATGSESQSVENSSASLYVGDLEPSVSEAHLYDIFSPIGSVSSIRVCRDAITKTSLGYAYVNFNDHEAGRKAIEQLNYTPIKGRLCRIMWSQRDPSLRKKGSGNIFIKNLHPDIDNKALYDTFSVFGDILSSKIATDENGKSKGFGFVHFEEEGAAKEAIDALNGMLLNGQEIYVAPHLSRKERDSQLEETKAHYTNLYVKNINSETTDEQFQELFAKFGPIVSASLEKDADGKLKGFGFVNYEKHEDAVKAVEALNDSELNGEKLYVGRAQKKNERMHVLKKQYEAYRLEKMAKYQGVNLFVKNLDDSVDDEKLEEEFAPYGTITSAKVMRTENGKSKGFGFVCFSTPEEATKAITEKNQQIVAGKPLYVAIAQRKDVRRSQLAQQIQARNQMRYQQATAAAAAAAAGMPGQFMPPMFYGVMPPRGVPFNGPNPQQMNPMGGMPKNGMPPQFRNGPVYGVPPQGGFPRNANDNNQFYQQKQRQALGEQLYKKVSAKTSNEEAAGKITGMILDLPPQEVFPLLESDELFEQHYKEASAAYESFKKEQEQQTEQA

Assay [1] deals with GST-tagged Pab1 (S. cerevisiae) (UniProt P04147). Nature of the assay: pull-down; GST fusion and Myc-tagged Mdy2 variant coexpressed in yeast (16 h in SRG medium); whole cell extract with Glutathione Sepharose 4B, 2 h at 4°C, four washes in E-buffer (20 mM HEPES pH 7.5, 150 mM NaCl, 5 mM EDTA, 0.1% Triton-X-100, 10% glycerol); Western blot with anti-Myc.
Assay [2] has as its target T1, GST-tagged Sgt2 (S. cerevisiae) (UniProt Q12118).
T1 sequence: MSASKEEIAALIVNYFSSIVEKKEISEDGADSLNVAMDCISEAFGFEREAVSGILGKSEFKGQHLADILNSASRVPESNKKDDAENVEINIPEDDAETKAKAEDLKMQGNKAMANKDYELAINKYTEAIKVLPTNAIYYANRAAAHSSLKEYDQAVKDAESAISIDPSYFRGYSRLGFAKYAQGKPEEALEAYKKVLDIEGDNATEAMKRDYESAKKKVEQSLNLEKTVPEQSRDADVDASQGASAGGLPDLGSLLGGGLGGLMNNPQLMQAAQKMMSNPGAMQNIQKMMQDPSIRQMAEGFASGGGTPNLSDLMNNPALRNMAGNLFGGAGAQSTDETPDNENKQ
Described as above.

B1: Myc-tagged Mdy2 (protein, UniProt Q12285 1-212)
chain: MSTSASGPEHEFVSKFLTLATLTEPKLPKSYTKPLKDVTNLGVPLPTLKYKYKQNRAKKLKLHQDQQGQDNAAVHLTLKKIQAPKFSIEHDFSPSDTILQIKQHLISEEKASHISEIKLLLKGKVLHDNLFLSDLKVTPANSTITVMIKPNPTISKEPEAEKSTNSPAPAPPQELTVPWDDIEALLKNNFENDQAAVRQVMERLQKGWSLAK
On to B1, for which the binding result in assay [1] and in assay [2] was “binds” in each case.

B2: Myc-tagged Mdy2-ΔNLS (protein, UniProt Q12285)
chain: MSTSASGPEHEFVSKFLTLATLTEPKLPKSYTKPLKDVTNLGVPLPTLLHQDQQGQDNAAVHLTLKKIQAPKFSIEHDFSPSDTILQIKQHLISEEKASHISEIKLLLKGKVLHDNLFLSDLKVTPANSTITVMIKPNPTISKEPEAEKSTNSPAPAPPQELTVPWDDIEALLKNNFENDQAAVRQVMERLQKGWSLAK
B2: in assay [2], the binding result is reported as “binds”.

B3: Myc-tagged Mdy2-ΔNES (protein, UniProt Q12285)
chain: MSTSASGPEHEFVSKFLTLATLTEPKLPKSYTKPLKDVTNLGVPLPTLKYKYKQNRAKKLKLHQDQQGQDNAAVHLTLKKIQAPKFSIEHDFSPSDTILQIKQHLISEEKASHISEIGKVLHDNLFLSDLKVTPANSTITVMIKPNPTISKEPEAEKSTNSPAPAPPQELTVPWDDIEALLKNNFENDQAAVRQVMERLQKGWSLAK
Turning to B3, the binding result in assay [2] is given as “no binding”.
